## Library screen at single concentrations

Sequences of proteins named here, by UniProt entry; tags and fusion partners are left off. Residues count along the entry.
UniProt A4I591, 1-473: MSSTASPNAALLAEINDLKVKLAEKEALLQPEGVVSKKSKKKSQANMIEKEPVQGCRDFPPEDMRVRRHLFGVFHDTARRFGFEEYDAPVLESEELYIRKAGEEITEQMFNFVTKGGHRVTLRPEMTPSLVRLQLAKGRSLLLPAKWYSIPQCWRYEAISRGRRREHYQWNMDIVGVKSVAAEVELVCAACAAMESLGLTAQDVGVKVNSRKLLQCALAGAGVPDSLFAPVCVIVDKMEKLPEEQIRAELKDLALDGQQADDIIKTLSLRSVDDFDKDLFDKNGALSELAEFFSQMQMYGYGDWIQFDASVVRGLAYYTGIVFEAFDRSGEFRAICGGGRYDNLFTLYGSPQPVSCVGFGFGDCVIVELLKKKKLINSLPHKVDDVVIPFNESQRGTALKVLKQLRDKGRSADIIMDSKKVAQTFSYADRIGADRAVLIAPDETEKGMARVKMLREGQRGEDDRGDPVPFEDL

From ChEMBL document CHEMBL3988442, “University of Dundee, Small-Polar-MMV Screening Library” (2021).

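Histidine-tRNA ligase, Leishmania infantum (UniProt A4I591). Enzyme assay of histidyl-tRNA synthetase; the read-out is not stated. Tested at 30 µM. Direction is inferred from retests: higher values go with stronger inhibition. The assay is labelled LdHisRS but filed under L. infantum. Of about 69,000 compounds tested this way, about 410 (0.6%) reached 50% or more in at least one test.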

Results are given as percent effect.
How 0% and 100% were set is not recorded. Most values in the screen are low, and negative values occur.
The compounds are a random part of those screened.

SMILES	Percent Effect
CC(Cn1cncn1)NC(=O)NCC(C)(C)Cc1ccccc1 (centres undefined)	2.667%
OC1(CNCCc2csc(-c3ncccn3)n2)CCNC1 (centres undefined)	31.65%
COCCNC(=O)Cn1cc2c(n1)c(C)nn2C(C)C	23.08%
Cc1nc(NC2CCN(S(=O)(=O)c3ccccc3)CC2)[nH]c(=O)c1C	8.054%
Cc1ccccc1-c1noc(CN2CC(n3cccn3)C2)n1	8.264%
CC(C)c1nc(C2CCCN(C(=O)c3cccc4c3OCO4)C2)no1 (centres undefined)	14.78%
CCc1cc(O)nc(C2CCCN2C(=O)c2cccnc2)n1 (centres undefined)	2.857%
CC(C1CCN(Cc2cnn(C)c2C2CC2)CC1)N(C)C (centres undefined)	20%
O=C(NCC1CC1)c1n[nH]c2c1CNCC2	15.53%
O=C(Cn1cccn1)N1CCC(Cn2cc(-c3ccsc3)nn2)CC1	9.836%
CCCc1nnc(N(C)CC2CCN(CC(C)C)CC2)o1	26.76%
c1ccc(-c2nnc([C@H]3CCN(C4CCC4)C3)o2)cc1	12.16%
Cn1cc(-c2ccnc(NCC3CCCCO3)n2)cn1 (centres undefined)	8.772%
COc1ccc(CNc2n[nH]c(C)n2)cc1	14.29%
O=C(c1ncccn1)N1C[C@@H]2COC[C@]2(COCc2cccnc2)C1	9.735%
CC[C@@H]1N(CC2CCC2)CCC[C@]12CCC(=O)N2Cc1ccncc1	19.23%
Cn1nnnc1SCC1Cc2ccccc2O1 (centres undefined)	-7.895%
CCn1ncc2c1C(COC)N(C(=O)c1cccs1)CC2 (centres undefined)	10%
COCCn1cc(NC(=O)NC(C)Cc2c(F)cccc2F)cn1 (centres undefined)	-0.8696%
O=C(Nc1ccccn1)C1CC(=O)N(Cc2ccccn2)C1 (centres undefined)	20%
O=C(Nc1ccccc1OCC1CCCCO1)c1ccc(O)nc1 (centres undefined)	0%
O=C(c1cccnc1)N1CCN2C[C@H](Oc3cncnc3)C[C@H]2C1	25%
CSC1(CNC(=O)c2ccn(-c3ccccc3F)n2)CCOCC1	-1.667%
O[C@@H]1C[C@@H](c2nc(-c3cccnc3)no2)N(C2CCOCC2)C1	-4.054%
CN(CC1Cc2ccccc2CN1C)C(=O)Cc1cccs1 (centres undefined)	12.7%
COCC(=O)N1CCCC1c1nc(O)cc(C(C)C)n1 (centres undefined)	13.68%
Cc1cnc(CNC2CCc3nc(C(C)C)nn3C2)cn1 (centres undefined)	-11.24%
COCCn1ccnc1C1CCN(c2cccc(C(=O)O)n2)CC1	23.94%
CC(NC(=O)c1cccnc1N(C)C)c1ccccc1Br (centres undefined)	24.66%
c1ccc(O[C@H]2COCCN(Cc3c[nH]c4ccccc34)C2)cc1	16.67%
O=C(Cc1ccn[nH]1)N1CCc2cc(Br)sc2C1	4.286%
Cc1cc(C)c(CNC(=O)N2CCCC2c2ccccc2)c(=O)[nH]1 (centres undefined)	27.03%
CCN1CC(C(=O)N2CCN(CCn3cccc3)CC2)CCC1=O (centres undefined)	8.065%
c1coc(CNCC2Cn3nncc3CO2)c1 (centres undefined)	11.71%
CCCN1CC(C(=O)Nc2ccccn2)CC1=O (centres undefined)	5.769%
COc1cc(C)nc(N2CCN(C(C)c3nc(C)no3)CC2)n1 (centres undefined)	15.83%
O=C(c1ccncc1Cl)N1CCN(Cc2ccco2)C(CCO)C1 (centres undefined)	6.612%
O=C1CC(C(=O)O)C2(CCN(C(=O)NCc3ccc(Cl)cc3)CC2)N1 (centres undefined)	14.67%
Cc1nc(Nc2ncccn2)cc(C2CCCN2CC(C)C)n1 (centres undefined)	9.489%
CCc1nnc(CN2CCC(c3nc4cc(Cl)ccc4o3)CC2)o1	8.163%
O=c1[nH]c(NCCCO)nc2c1C1(CCCC1)Cc1ccccc1-2	21.05%
CCS(=O)(=O)N1CCCC2(CCCN2C(=O)c2cscn2)C1 (centres undefined)	-6.195%
O=C(Nc1cc(C2CCOCC2)[nH]n1)c1ccc(Cl)cn1	17.65%
Cc1nc(C)n(CC2CCCN(CCCOc3ccc(F)cc3)C2)n1 (centres undefined)	1.754%
CCCNC(=O)C1CCN(CC(O)c2ccc(C(F)(F)F)cc2)CC1 (centres undefined)	21.52%
COc1ccccc1CN1C[C@@H](F)[C@@H](OCc2nc3ccccc3[nH]2)C1	27.03%
Cc1cc(C(=O)N2CCC(CCn3cccn3)CC2)c(C)o1	16.44%
O=C(NC1CCN(Cc2cccc3c2OCCO3)CC1)c1cccs1	13.04%
Cc1cc(Br)oc1C(=O)N1CCC(N(C)C)CC1	3.226%

6 of the entries, repeated:

SMILES	Percent Effect
O=C(Nc1ccccc1OCC1CCCCO1)c1ccc(O)nc1 (centres undefined)	0%
COCCn1cc(NC(=O)NC(C)Cc2c(F)cccc2F)cn1 (centres undefined)	-0.8696%
O=C(Nc1cc(C2CCOCC2)[nH]n1)c1ccc(Cl)cn1	17.65%
Cn1nnnc1SCC1Cc2ccccc2O1 (centres undefined)	-7.895%
CC(C1CCN(Cc2cnn(C)c2C2CC2)CC1)N(C)C (centres undefined)	20%
O=C(NCC1CC1)c1n[nH]c2c1CNCC2	15.53%